PubChem BioAssay AID504791 – Drosophila RNAi Screening Center, 2011

Assay: 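Factors in Argonaute-based small RNA production and activity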 (primary screen)
Cells: Drosophila S2-derived reporter cells
Knock-down reagent: long dsRNA against Drosophila genes, about 150-250 ng dsRNA per well (siRNA assay); about 80-120 ng (miRNA assay)
Time to read-out: about 5 days (siRNA assay); about 4 days (miRNA assay)
Conditions: copper sulfate induction of reporters: 25 µM (siRNA assay); 200 mM stated (miRNA assay), 1-2 days before reading
Measured: 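Dual luciferase assay: Renilla to firefly signal ratio in each well, scaled to the mean ratio of its plate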
Units: stable assay Renilla, run 1 in luminescence; stable assay firefly, run 1 in luminescence
Active means: 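First-pass picks had plate-scaled ratios over 1.5 for the siRNA assay, over 1.6 for the miRNA assay, or under 0.6; two distinct dsRNAs had to score alike on retest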
The screen tested about 23,000 reagents; below is a random part of those that have a named target and a result. Of all reagents, 199 (0.86%) got an active call. 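Plate-scaled ratios behind the calls are not deposited; printed light signals are raw; many rows marked increased or decreased are still called inactive.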 Not given: the direction of the score.

With CG42337 (GeneID 40335) [DRSC11686], what was measured?
stable assay Renilla, run 1: 6498; stable assay firefly, run 1: 4.38e5; outcome: inactive

With CG42337 (GeneID 40335) [DRSC11687], what does the deposit list?
stable assay Renilla, run 1: 5143; stable assay firefly, run 1: 2.64e5; outcome: inactive

What is on record for CG42337 (GeneID 40335) [DRSC23099]?
stable assay Renilla, run 1: 5859; stable assay firefly, run 1: 3.88e5; outcome: inactive

For crok (GeneID 34646) [DRSC02593], what does the deposit list?
stable assay Renilla, run 1: 7158; stable assay firefly, run 1: 4.24e5; outcome: inactive

With crok (GeneID 34646) [DRSC21349], what was measured?
stable assay Renilla, run 1: 8865; stable assay firefly, run 1: 4.14e5; outcome: inactive

What did the screen give for sau (GeneID 33402) [DRSC00694]?
miRNA reporter change: reporter ratio lowered past the hit cutoff; stable assay Renilla, run 1: 8487; stable assay firefly, run 1: 5.51e5; outcome: inactive

For amon (GeneID 43215) [DRSC13784], how do the results read?
stable assay Renilla, run 1: 5702; stable assay firefly, run 1: 3.73e5; outcome: inactive

How did the screen score amon (GeneID 43215) [DRSC16900]?
stable assay Renilla, run 1: 4859; stable assay firefly, run 1: 4.50e5; outcome: inactive

What did the screen give for disco-r (GeneID 64875) [DRSC20173]?
stable assay Renilla, run 1: 3664; stable assay firefly, run 1: 3.10e5; outcome: inactive

For disco-r (GeneID 64875) [DRSC20174], what does the deposit list?
stable assay Renilla, run 1: 4871; stable assay firefly, run 1: 4.02e5; outcome: inactive

With CG7275 (GeneID 39669) [DRSC10796], what does the deposit list?
stable assay Renilla, run 1: 7656; stable assay firefly, run 1: 3.24e5; outcome: inactive

Which result is listed for Psa (GeneID 38175) [DRSC08152]?
stable assay Renilla, run 1: 13567; stable assay firefly, run 1: 4.29e5; outcome: inactive

Entries listed so far whose target name starts with D or d (2):
disco-r (GeneID 64875) [DRSC20173] — stable assay Renilla, run 1: 3664; stable assay firefly, run 1: 3.10e5; outcome: inactive
disco-r (GeneID 64875) [DRSC20174] — stable assay Renilla, run 1: 4871; stable assay firefly, run 1: 4.02e5; outcome: inactive

More reagents follow:
What is on record for Ccz1 (GeneID 38455) [DRSC08439]?
stable assay Renilla, run 1: 8117; stable assay firefly, run 1: 4.06e5; outcome: inactive

For Klp68D (GeneID 39332) [DRSC11206], what was measured?
stable assay Renilla, run 1: 7970; stable assay firefly, run 1: 4.15e5; outcome: inactive

How did the screen score B9d1 (GeneID 41888) [DRSC14993]?
stable assay Renilla, run 1: 7571; stable assay firefly, run 1: 4.31e5; outcome: inactive

For CG10116 (GeneID 39515) [DRSC09700], how do the results read?
stable assay Renilla, run 1: 9418; stable assay firefly, run 1: 5.18e5; outcome: inactive

With CG33013 (retired record) (GeneID 318830) [DRSC06286], how do the results read?
stable assay Renilla, run 1: 6398; stable assay firefly, run 1: 3.30e5; outcome: inactive

What is on record for Or2a (GeneID 31207) [DRSC18690]?
stable assay Renilla, run 1: 5636; stable assay firefly, run 1: 3.91e5; outcome: inactive

For Sgs4 (GeneID 31304) [DRSC18715], how do the results read?
stable assay Renilla, run 1: 5912; stable assay firefly, run 1: 3.39e5; outcome: inactive

With CG9752 (GeneID 37431) [DRSC04562], what does the deposit list?
stable assay Renilla, run 1: 1.30e5; stable assay firefly, run 1: 1.02e6; outcome: inactive

With Dsk (GeneID 45845) [DRSC12347], what was measured?
stable assay Renilla, run 1: 8029; stable assay firefly, run 1: 4.74e5; outcome: inactive

What is on record for Dhfr (GeneID 42003) [DRSC16646]?
stable assay Renilla, run 1: 6843; stable assay firefly, run 1: 4.25e5; outcome: inactive

With CG13630 (GeneID 42943) [DRSC14631], how do the results read?
stable assay Renilla, run 1: 10458; stable assay firefly, run 1: 3.82e5; outcome: inactive

With srp (GeneID 41944) [DRSC13125], how do the results read?
stable assay Renilla, run 1: 3624; stable assay firefly, run 1: 4.76e5; outcome: inactive

What is on record for srp (GeneID 41944) [DRSC17068]?
stable assay Renilla, run 1: 3627; stable assay firefly, run 1: 2.12e5; outcome: inactive

What is on record for srp (GeneID 41944) [DRSC23166]?
stable assay Renilla, run 1: 4740; stable assay firefly, run 1: 4.24e5; outcome: inactive

For Rbp6 (GeneID 39919) [DRSC09462], what does the deposit list?
stable assay Renilla, run 1: 5568; stable assay firefly, run 1: 3.18e5; outcome: inactive

How did the screen score Rbp6 (GeneID 39919) [DRSC09464]?
stable assay Renilla, run 1: 7031; stable assay firefly, run 1: 4.83e5; outcome: inactive

What is on record for Rbp6 (GeneID 39919) [DRSC10072]?
stable assay Renilla, run 1: 6716; stable assay firefly, run 1: 3.98e5; outcome: inactive

For Rbp6 (GeneID 39919) [DRSC10073], how do the results read?
stable assay Renilla, run 1: 7146; stable assay firefly, run 1: 3.41e5; outcome: inactive

With Rbp6 (GeneID 39919) [DRSC10662], how do the results read?
stable assay Renilla, run 1: 5706; stable assay firefly, run 1: 2.95e5; outcome: inactive
